# Some of the results follow.
# Sequences of proteins named here, by UniProt entry; tags and fusion partners are left off. A change or cut given only in a name is not applied to a line headed by its entry.
# UniProt P50502: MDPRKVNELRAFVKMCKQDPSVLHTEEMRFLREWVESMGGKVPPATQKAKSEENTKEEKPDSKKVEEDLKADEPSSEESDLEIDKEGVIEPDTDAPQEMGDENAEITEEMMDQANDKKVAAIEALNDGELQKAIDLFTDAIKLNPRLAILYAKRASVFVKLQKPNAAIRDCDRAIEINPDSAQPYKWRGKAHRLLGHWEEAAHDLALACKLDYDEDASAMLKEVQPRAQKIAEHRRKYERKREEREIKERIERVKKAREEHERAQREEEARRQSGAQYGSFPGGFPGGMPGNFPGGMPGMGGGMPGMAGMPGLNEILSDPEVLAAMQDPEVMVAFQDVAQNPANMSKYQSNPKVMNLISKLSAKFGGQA
# UniProt Q5W111: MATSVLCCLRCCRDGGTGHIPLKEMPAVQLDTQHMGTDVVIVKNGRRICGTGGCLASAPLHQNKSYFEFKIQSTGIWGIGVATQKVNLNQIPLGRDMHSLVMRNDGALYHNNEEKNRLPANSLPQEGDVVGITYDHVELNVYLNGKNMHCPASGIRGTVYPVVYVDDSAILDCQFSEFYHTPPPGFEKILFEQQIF
# UniProt P30626: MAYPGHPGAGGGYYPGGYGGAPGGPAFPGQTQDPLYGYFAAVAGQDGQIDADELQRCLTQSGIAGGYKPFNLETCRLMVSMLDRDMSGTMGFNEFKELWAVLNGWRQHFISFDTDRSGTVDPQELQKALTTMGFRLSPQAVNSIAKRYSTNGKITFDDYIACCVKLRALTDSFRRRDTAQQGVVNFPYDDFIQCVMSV
# UniProt Q96T58, whole entry, looked up: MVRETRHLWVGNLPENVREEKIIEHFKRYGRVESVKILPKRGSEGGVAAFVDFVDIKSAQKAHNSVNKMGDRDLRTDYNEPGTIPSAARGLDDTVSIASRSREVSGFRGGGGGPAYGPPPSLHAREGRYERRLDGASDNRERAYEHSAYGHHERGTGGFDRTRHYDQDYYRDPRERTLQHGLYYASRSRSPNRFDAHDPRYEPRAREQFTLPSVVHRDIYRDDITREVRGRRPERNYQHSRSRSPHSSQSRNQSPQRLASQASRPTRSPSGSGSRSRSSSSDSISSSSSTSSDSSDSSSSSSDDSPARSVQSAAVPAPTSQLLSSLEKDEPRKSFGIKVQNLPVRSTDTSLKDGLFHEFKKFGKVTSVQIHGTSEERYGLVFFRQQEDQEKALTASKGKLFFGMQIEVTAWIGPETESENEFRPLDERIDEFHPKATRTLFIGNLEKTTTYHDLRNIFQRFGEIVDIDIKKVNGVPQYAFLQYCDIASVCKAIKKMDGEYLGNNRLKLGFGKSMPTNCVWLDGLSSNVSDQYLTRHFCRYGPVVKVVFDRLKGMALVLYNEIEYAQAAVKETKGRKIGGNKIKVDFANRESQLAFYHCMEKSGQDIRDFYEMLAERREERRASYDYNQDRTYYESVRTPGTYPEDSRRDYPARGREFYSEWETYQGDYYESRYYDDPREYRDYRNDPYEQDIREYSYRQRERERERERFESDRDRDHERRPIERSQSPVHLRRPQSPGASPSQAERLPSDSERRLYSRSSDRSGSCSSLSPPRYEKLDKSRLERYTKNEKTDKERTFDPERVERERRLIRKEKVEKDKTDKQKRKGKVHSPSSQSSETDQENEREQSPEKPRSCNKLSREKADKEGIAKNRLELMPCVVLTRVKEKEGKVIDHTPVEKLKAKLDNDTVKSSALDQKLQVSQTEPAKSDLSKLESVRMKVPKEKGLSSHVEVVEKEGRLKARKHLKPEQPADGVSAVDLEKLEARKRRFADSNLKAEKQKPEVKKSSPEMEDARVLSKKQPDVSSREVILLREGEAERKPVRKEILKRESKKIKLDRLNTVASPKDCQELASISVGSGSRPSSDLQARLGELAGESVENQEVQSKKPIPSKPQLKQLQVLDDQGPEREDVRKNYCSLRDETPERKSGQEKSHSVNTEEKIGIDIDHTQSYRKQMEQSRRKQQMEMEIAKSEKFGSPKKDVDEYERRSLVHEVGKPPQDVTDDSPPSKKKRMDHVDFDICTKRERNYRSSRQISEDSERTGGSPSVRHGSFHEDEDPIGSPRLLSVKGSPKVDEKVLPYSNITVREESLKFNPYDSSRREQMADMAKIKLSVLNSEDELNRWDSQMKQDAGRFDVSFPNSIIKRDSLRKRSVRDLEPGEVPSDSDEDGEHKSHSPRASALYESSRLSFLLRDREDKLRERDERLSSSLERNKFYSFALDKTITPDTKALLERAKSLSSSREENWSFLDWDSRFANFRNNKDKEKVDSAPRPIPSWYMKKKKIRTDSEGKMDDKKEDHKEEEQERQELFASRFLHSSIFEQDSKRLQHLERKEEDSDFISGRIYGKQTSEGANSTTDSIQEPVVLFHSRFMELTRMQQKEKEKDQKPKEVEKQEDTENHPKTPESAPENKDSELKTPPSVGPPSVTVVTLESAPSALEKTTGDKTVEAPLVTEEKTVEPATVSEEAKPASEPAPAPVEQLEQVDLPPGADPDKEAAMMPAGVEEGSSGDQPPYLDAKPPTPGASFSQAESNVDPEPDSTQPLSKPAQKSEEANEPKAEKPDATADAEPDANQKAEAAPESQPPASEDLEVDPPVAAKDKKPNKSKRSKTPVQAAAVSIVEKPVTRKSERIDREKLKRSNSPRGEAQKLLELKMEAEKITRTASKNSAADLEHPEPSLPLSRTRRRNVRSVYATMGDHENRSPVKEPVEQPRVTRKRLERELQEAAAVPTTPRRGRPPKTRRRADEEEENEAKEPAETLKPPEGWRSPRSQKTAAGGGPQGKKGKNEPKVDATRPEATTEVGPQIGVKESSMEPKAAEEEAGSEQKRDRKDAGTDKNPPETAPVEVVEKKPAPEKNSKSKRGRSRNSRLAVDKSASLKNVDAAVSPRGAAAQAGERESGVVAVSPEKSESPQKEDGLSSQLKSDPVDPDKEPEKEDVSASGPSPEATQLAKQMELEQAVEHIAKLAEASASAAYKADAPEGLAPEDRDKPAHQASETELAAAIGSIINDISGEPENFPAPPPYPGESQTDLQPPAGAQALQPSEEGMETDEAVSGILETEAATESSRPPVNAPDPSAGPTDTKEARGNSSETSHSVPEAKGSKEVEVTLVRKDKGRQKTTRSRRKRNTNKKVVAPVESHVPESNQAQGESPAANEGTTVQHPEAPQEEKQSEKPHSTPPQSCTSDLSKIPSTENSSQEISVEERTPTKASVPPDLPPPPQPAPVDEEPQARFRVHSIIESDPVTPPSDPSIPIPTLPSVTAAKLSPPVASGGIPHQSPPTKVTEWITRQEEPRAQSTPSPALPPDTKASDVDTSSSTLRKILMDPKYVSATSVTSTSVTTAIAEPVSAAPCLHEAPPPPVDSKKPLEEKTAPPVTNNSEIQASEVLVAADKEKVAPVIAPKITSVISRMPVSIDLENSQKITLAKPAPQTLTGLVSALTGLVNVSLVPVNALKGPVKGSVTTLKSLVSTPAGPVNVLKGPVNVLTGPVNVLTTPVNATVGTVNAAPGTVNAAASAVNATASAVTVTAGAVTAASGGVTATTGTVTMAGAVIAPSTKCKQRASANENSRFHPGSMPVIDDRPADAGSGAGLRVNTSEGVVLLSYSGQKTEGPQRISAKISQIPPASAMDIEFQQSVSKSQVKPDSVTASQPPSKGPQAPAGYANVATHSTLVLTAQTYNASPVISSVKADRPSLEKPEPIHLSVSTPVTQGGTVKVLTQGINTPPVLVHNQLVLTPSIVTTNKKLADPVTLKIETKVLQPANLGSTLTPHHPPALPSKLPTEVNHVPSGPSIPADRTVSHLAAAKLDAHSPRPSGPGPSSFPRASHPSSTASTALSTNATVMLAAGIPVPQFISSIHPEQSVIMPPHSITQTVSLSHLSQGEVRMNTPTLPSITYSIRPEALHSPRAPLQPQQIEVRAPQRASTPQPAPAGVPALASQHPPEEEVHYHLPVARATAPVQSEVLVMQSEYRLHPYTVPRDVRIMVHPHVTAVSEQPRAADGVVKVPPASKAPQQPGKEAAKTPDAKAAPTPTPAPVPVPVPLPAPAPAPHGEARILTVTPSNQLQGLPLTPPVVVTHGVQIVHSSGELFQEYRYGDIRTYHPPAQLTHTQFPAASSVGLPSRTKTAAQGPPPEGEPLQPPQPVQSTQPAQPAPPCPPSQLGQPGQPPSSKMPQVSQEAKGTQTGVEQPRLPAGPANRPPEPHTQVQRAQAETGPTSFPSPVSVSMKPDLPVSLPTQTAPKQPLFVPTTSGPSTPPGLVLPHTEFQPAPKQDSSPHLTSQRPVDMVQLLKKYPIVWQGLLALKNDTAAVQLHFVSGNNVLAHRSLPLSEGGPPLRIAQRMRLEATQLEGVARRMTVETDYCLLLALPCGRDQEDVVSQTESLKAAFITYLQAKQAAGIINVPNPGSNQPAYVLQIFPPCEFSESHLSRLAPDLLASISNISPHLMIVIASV
# UniProt O75494: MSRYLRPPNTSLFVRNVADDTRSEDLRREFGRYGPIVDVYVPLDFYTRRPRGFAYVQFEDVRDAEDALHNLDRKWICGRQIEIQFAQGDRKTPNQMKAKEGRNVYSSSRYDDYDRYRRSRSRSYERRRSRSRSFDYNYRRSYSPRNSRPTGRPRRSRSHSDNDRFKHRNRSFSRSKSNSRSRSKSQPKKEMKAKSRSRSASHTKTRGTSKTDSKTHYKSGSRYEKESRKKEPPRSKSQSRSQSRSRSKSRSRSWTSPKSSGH
# UniProt Q14849, whole entry, looked up: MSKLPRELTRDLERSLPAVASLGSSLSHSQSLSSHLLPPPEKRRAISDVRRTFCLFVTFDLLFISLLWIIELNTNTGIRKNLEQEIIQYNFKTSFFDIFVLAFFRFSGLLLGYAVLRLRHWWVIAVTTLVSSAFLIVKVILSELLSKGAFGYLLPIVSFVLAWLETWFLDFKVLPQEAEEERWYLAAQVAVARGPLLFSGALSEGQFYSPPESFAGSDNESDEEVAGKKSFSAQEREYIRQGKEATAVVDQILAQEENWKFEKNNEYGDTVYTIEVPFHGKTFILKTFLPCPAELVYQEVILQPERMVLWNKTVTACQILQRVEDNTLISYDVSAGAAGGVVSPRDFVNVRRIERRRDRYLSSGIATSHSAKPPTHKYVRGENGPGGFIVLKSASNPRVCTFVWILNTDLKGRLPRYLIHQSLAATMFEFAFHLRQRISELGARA
# UniProt P42226: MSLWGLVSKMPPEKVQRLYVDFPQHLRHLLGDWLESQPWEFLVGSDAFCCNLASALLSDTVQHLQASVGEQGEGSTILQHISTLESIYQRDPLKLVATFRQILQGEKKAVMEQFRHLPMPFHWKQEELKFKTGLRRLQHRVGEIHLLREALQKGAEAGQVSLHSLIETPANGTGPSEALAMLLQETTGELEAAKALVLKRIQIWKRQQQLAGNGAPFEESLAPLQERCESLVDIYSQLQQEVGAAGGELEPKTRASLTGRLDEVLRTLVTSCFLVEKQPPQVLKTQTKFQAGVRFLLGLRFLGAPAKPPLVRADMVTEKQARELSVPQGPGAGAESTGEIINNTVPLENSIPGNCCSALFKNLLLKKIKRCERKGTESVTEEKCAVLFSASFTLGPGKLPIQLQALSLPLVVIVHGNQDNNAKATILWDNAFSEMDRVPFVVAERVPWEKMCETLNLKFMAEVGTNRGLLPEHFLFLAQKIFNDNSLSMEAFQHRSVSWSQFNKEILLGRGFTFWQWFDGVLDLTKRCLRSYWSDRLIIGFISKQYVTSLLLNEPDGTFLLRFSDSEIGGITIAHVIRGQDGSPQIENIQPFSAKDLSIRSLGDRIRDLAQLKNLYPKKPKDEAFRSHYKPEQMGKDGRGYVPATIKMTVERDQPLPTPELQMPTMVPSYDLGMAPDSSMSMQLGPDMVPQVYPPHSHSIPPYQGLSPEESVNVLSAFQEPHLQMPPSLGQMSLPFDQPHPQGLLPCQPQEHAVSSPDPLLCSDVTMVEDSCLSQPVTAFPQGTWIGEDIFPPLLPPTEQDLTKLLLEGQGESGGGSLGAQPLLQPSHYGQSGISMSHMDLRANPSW
# UniProt P49458: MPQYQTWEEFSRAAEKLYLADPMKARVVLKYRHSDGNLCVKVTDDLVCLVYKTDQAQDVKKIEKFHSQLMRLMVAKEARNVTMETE
# UniProt Q9HD15: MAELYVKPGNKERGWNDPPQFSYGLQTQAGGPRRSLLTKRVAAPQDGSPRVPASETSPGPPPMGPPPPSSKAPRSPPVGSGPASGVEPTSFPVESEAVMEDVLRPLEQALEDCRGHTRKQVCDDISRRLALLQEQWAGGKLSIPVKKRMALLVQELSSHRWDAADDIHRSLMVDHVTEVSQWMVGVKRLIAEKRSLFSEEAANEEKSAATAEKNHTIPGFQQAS
# UniProt Q9UNL2: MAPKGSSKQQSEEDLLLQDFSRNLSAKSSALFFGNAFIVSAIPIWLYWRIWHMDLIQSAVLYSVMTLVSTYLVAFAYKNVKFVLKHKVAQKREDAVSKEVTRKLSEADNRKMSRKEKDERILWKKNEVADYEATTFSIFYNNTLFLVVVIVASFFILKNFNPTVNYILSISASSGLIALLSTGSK
# How the values were obtained:
# Test in all cases: log2 fold change, soluble protein after heating vs DMSO (PISA); higher = thermal stabilisation; K562 lysate, 10 uM; active = over 0.2 and 3.5 SD of the protein, either way, in both replicates (recomputed)
# [1] = compound: CS(=O)(=O)CCNCc1ccc(-c2ccc3ncnc(Nc4ccc(OCc5cccc(F)c5)c(Cl)c4)c3c2)o1 [lapatinib]
# Outline: (§1)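 A 30 min treatment with 10 μM compound was applied to crude K562 extract at 1 mg/mL protein in PBS pH 7.4 with 1 mM MgCl2. Heating for 3 min spanned 48°C-58°C, after which aliquots were pooled, adjusted to 0.5% NP-40 at 4°C and spun at 21,000xg for 90 min. TMTpro 16plex LC-MS/MS of the supernatant, with channel sums equalised, gave values recorded as log-two fold change in thermal stability against solvent controls, from duplicates.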
# [2] = compound: CS(=O)(=O)N1CCN(Cc2cc3nc(-c4cccc5[nH]ncc45)nc(N4CCOCC4)c3s2)CC1 [pictilisib]
# Outline: as §1
# [3] = compound: C[C@@H](Oc1cc(-c2cnn(C3CCNCC3)c2)cnc1N)c1c(Cl)ccc(F)c1Cl [crizotinib]
# Outline: as §1
# [4] = compound: C[C@H](C1=CC=C(C=C1)C(=O)NC2=C3C=CNC3=NC=C2)N
# Outline: as §1
# [5] = compound: C[C@H](Nc1ncnc2nc[nH]c12)c1cc2cccc(Cl)c2c(=O)n1-c1ccccc1 [duvelisib]
# Outline: as §1
# [6] = compound: Cc1cc(Nc2cc(CN3CCOCC3)c3nc(C)c(Cc4ccc(Cl)cc4F)n3n2)n[nH]1 [gandotinib]
# Outline: as §1
# [7] = compound: Cc1cc(Nc2cc(N3CCN(C)CC3)nc(Sc3ccc(NC(=O)C4CC4)cc3)n2)n[nH]1 [tozasertib]
# Outline: as §1
# [8] = compound: Cc1ccc(-n2nc(C(C)(C)C)cc2NC(=O)Nc2ccc(OCCN3CCOCC3)c3ccccc23)cc1 [doramapimod]
# Outline: as §1
# [9] = compound: Cc1ccc(NC(=O)c2ccc(CN3CC[C@H](N(C)C)C3)c(C(F)(F)F)c2)cc1Nc1nccc(-c2cncnc2)n1 [bafetinib]
# Outline: as §1
# [10] = compound: Cc1cccc(CC(=O)N2CCc3c2ccc(-c2cn(C)c4ncnc(N)c24)c3F)n1
# Outline: as §1
Target,log2 fold change [1],log2 fold change [2],log2 fold change [3],log2 fold change [4],log2 fold change [5],log2 fold change [6],log2 fold change [7],log2 fold change [8],log2 fold change [9],log2 fold change [10]
STARD3NL (UniProt O95772),inactive: -0.046,inactive: -0.002,inactive: -0.065,inactive: -0.152,inactive: 0.006,inactive: 0.168,inactive: 0.05,inactive: 0.037,inactive: -0.058,inactive: 0.131
STAM2 (UniProt O75886),inactive: 0.032,inactive: -0.021,inactive: -0.008,inactive: 0.001,inactive: -0.018,inactive: 0.001,inactive: 0.012,inactive: 0.02,inactive: 0,inactive: 0.04
STIM1 (UniProt Q13586),inactive: -0.056,inactive: -0.028,inactive: -0.053,inactive: 0.145,inactive: -0.007,inactive: -0.095,inactive: 0.032,inactive: 0.044,inactive: -0.056,inactive: -0.037
ST13 (UniProt P50502),inactive: -0.014,inactive: -0.01,inactive: 0.004,inactive: 0.016,inactive: -0.004,inactive: 0.002,inactive: 0.013,inactive: 0.013,inactive: -0.004,inactive: -0.052
SRXN1 (UniProt Q9BYN0),inactive: 0.07,inactive: -0.04,inactive: -0.037,inactive: 0.007,inactive: 0.001,inactive: -0.017,inactive: 0.089,inactive: -0.031,inactive: 0.054,inactive: 0.106
SSB (UniProt E7ERC4),inactive: -0.151,inactive: -0.15,inactive: -0.103,active: 1.41,inactive: 0.141,inactive: -0.263,inactive: -0.028,inactive: 0.032,inactive: -0.271,inactive: -0.121
SPRYD7 (UniProt Q5W111),inactive: -0.062,inactive: 0.009,inactive: 0.009,inactive: -0.048,inactive: -0.048,inactive: 0.043,inactive: 0.01,inactive: -0.039,inactive: -0.061,inactive: 0.143
SRI (UniProt P30626),inactive: 0.126,inactive: 0.004,inactive: 0.016,inactive: 0.169,inactive: 0.035,inactive: -0.091,inactive: 0.021,inactive: 0.019,inactive: -0.03,inactive: -0.071
SPEN (UniProt Q96T58),inactive: -0.013,inactive: -0.091,inactive: -0.068,inactive: -0.217,inactive: 0.007,inactive: 0.037,inactive: 0.003,inactive: 0.136,inactive: -0.097,inactive: 0.046
SPINDOC (UniProt Q9BUA3),inactive: 0.003,inactive: -0.022,inactive: 0.074,inactive: 0.009,inactive: 0.014,inactive: 0.163,inactive: -0.029,inactive: -0.008,inactive: 0.035,inactive: 0.065
STAG2 isoform 2 (UniProt Q8N3U4),inactive: 0.005,inactive: 0.004,inactive: 0.019,inactive: 0.011,inactive: 0.018,inactive: -0.007,inactive: -0.009,inactive: 0.03,inactive: -0.065,inactive: -0.018
SRSF10 (UniProt O75494),inactive: 0.03,inactive: 0.097,inactive: -0.158,inactive: -0.005,inactive: 0.067,inactive: 0.001,inactive: 0.012,inactive: 0.054,inactive: -0.019,inactive: 0.058
SPCS2 (UniProt Q15005),inactive: -0.024,inactive: -0.003,inactive: 0.002,inactive: 0.106,inactive: -0.025,inactive: -0.182,inactive: 0.055,inactive: -0.025,inactive: 0.037,inactive: -0.119
SPIN1 (UniProt Q9Y657),inactive: -0.002,inactive: -0.008,inactive: -0.115,inactive: -0.012,inactive: 0.081,inactive: 0.041,inactive: -0.005,inactive: 0.097,inactive: 0.004,inactive: 0.049
SRRT (UniProt Q9BXP5),inactive: 0.005,inactive: -0.029,inactive: -0.055,inactive: 0.059,inactive: -0.007,inactive: -0.072,inactive: 0.032,inactive: 0.066,inactive: -0.023,inactive: -0.018
STAT5A (UniProt P42229),inactive: -0.02,inactive: -0.011,inactive: -0.017,inactive: 0.027,inactive: -0.02,inactive: -0.043,inactive: 0.032,inactive: -0.003,inactive: -0.043,inactive: -0.016
STARD3 isoform 3 (UniProt Q14849),inactive: -0.094,inactive: -0.087,inactive: -0.024,inactive: -0.072,inactive: -0.005,inactive: 0.027,inactive: -0.075,inactive: 0.021,inactive: -0.209,inactive: 0.084
SRFBP1 (UniProt Q8NEF9),inactive: 0.007,inactive: -0.023,inactive: -0.077,inactive: -0.127,inactive: -0.152,inactive: 0.128,inactive: -0.002,inactive: -0.05,inactive: -0.038,inactive: 0.082
STAT6 (UniProt P42226),inactive: 0.07,inactive: -0.035,inactive: -0.075,inactive: -0.018,inactive: -0.012,inactive: -0.028,inactive: -0.023,inactive: 0.041,inactive: -0.021,inactive: 0.056
SSBP3 (UniProt Q9BWW4),inactive: 0.039,inactive: -0.158,inactive: 0.018,inactive: -0.014,inactive: 0.019,inactive: -0.019,inactive: -0.041,inactive: 0.014,inactive: -0.06,inactive: 0.029
SPNS1 (UniProt Q9H2V7),inactive: 0.025,inactive: -0.038,inactive: -0.004,inactive: -0.042,inactive: 0.04,inactive: 0.032,inactive: -0.073,inactive: 0.014,inactive: -0.054,inactive: 0.052
SRP9 (UniProt P49458),inactive: 0,inactive: 0.043,inactive: 0.014,inactive: 0.043,inactive: 0.026,inactive: -0.015,inactive: 0.026,inactive: 0.004,inactive: 0.013,inactive: 0.037
SRA1 (UniProt Q9HD15),inactive: -0.008,inactive: -0.023,inactive: 0.023,inactive: -0.088,inactive: 0.016,inactive: 0.081,inactive: -0.008,inactive: -0.025,inactive: 0.013,inactive: 0.027
SSR3 isoform 2 (UniProt Q9UNL2),inactive: -0.008,inactive: 0.01,inactive: -0.008,inactive: 0.237,inactive: 0.077,inactive: -0.082,inactive: 0.014,inactive: 0.037,inactive: -0.014,inactive: -0.276
SSX2 (UniProt Q16385),inactive: 0.023,inactive: 0.012,inactive: 0.08,inactive: 0.013,inactive: -0.085,inactive: 0.034,inactive: -0.044,inactive: 0.036,inactive: -0.009,inactive: -0.052
ST6GAL1 (UniProt P15907),inactive: -0.012,inactive: -0.001,inactive: -0.044,inactive: -0.028,inactive: 0.008,inactive: -0.043,inactive: 0.047,inactive: 0.037,inactive: -0.005,inactive: 0.04
SSB (UniProt P05455),inactive: -0.024,inactive: 0.015,inactive: 0.046,inactive: 0.05,inactive: -0.01,inactive: -0.03,inactive: 0.009,inactive: -0.032,inactive: 0.017,inactive: -0.036

# Taken from above.
# Under log2 fold change [2], STARD3 isoform 3 (UniProt Q14849) is listed with inactive: -0.087
# Under log2 fold change [9], STARD3NL (UniProt O95772) is listed with inactive: -0.058

# Reference: the supplement of paper PMC10849652
